This note sets out measurements from article doi:10.1101/2021.02.19.431979.

Results are given in words; binding and its absence hold for the method and conditions named. In cells and extracts the contact can be indirect. Some binding calls cover weakened binding; strength is not graded here. For some assays here: Sequences can lack the tags named with a protein.

The target of experiment [1] is T1, Snf7^D131C (S. cerevisiae) (UniProt P39929).
T1 sequence: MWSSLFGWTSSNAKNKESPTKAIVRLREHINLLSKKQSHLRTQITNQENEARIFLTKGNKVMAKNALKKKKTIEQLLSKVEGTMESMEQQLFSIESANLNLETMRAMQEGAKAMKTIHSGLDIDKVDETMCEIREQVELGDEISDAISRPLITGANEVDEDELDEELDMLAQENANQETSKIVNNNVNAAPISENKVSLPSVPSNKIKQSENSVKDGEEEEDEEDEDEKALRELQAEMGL
The experiment can be described thus: cross-linking.

Experiment [2] addresses T2, Vps24^M90E-HTF (S. cerevisiae) (UniProt P36095).
T2 sequence: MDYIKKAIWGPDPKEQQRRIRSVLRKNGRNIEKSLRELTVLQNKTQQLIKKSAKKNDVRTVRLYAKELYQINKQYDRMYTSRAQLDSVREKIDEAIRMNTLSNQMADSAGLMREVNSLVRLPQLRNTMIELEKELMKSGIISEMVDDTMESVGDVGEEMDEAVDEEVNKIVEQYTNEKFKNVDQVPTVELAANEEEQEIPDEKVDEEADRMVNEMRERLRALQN
Briefly: co-IP.

The target of experiment [3] is T3, Vps24-6xHis-TEV-FLAG (HTF) (S. cerevisiae) (UniProt P36095).
T3 sequence: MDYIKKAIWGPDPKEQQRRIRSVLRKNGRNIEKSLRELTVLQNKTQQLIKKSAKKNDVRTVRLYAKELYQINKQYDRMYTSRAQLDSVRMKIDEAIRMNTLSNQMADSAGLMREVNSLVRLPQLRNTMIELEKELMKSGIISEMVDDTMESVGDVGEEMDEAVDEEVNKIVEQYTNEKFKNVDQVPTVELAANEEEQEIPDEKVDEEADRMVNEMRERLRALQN
Briefly: co-IP.

For experiment [4], the target named is T4, Vps24-6xHis-TEV-FLAG (HTF) (S. cerevisiae), P36095.
T4 chain: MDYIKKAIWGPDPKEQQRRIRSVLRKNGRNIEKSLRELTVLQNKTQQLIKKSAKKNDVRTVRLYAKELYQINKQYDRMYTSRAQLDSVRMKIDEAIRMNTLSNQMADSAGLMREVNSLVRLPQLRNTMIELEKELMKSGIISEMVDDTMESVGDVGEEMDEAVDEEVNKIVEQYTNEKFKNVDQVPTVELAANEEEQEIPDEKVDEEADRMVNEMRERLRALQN
The experiment can be described thus: co-IP. The following applies: remark: other sources report otherwise.

Experiment [5] addresses T5, Vps2^L113C (S. cerevisiae) (UniProt P36108).
T5 sequence: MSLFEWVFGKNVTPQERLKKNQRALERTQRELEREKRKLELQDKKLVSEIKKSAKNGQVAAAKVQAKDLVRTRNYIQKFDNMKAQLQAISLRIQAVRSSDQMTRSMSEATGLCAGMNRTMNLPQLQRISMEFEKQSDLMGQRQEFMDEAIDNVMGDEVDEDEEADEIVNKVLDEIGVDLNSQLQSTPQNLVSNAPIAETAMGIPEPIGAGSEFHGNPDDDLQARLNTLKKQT
The experiment can be described thus: cross-linking.

The target in experiment [6] is T6, Vps2^L91C (S. cerevisiae) (UniProt P36108).
T6 sequence: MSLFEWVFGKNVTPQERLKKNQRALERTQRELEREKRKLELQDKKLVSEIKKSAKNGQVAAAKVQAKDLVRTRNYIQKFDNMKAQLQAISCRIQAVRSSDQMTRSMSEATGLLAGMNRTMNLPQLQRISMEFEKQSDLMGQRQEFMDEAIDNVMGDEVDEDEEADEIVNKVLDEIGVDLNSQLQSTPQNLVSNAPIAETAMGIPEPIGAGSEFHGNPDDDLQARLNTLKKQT
Briefly: cross-linking.

B1: Vps2^K19C (protein, UniProt P36108 1-232)
chain: MSLFEWVFGKNVTPQERLCKNQRALERTQRELEREKRKLELQDKKLVSEIKKSAKNGQVAAAKVQAKDLVRTRNYIQKFDNMKAQLQAISLRIQAVRSSDQMTRSMSEATGLLAGMNRTMNLPQLQRISMEFEKQSDLMGQRQEFMDEAIDNVMGDEVDEDEEADEIVNKVLDEIGVDLNSQLQSTPQNLVSNAPIAETAMGIPEPIGAGSEFHGNPDDDLQARLNTLKKQT
For B1, the binding entry in experiment [1] was “binds”.

B2: Vps2 (protein, UniProt P36108 1-232)
chain: MSLFEWVFGKNVTPQERLKKNQRALERTQRELEREKRKLELQDKKLVSEIKKSAKNGQVAAAKVQAKDLVRTRNYIQKFDNMKAQLQAISLRIQAVRSSDQMTRSMSEATGLLAGMNRTMNLPQLQRISMEFEKQSDLMGQRQEFMDEAIDNVMGDEVDEDEEADEIVNKVLDEIGVDLNSQLQSTPQNLVSNAPIAETAMGIPEPIGAGSEFHGNPDDDLQARLNTLKKQT
On to B2, for which the binding result in experiment [2] is “no binding”.

B3: Vps2^L91E (protein, UniProt P36108 1-232)
chain: MSLFEWVFGKNVTPQERLKKNQRALERTQRELEREKRKLELQDKKLVSEIKKSAKNGQVAAAKVQAKDLVRTRNYIQKFDNMKAQLQAISERIQAVRSSDQMTRSMSEATGLLAGMNRTMNLPQLQRISMEFEKQSDLMGQRQEFMDEAIDNVMGDEVDEDEEADEIVNKVLDEIGVDLNSQLQSTPQNLVSNAPIAETAMGIPEPIGAGSEFHGNPDDDLQARLNTLKKQT
Take B3: in experiment [3], the binding entry was “no binding”.

B4: Vps2, P36108 1-232 (protein)
chain: MSLFEWVFGKNVTPQERLKKNQRALERTQRELEREKRKLELQDKKLVSEIKKSAKNGQVAAAKVQAKDLVRTRNYIQKFDNMKAQLQAISLRIQAVRSSDQMTRSMSEATGLLAGMNRTMNLPQLQRISMEFEKQSDLMGQRQEFMDEAIDNVMGDEVDEDEEADEIVNKVLDEIGVDLNSQLQSTPQNLVSNAPIAETAMGIPEPIGAGSEFHGNPDDDLQARLNTLKKQT
In the case of B4, in experiment [4], the binding result was “binds”.

B5: Vps24^R19C (protein, UniProt P36095 1-224)
chain: MDYIKKAIWGPDPKEQQRCIRSVLRKNGRNIEKSLRELTVLQNKTQQLIKKSAKKNDVRTVRLYAKELYQINKQYDRMYTSRAQLDSVRMKIDEAIRMNTLSNQMADSAGLMREVNSLVRLPQLRNTMIELEKELMKSGIISEMVDDTMESVGDVGEEMDEAVDEEVNKIVEQYTNEKFKNVDQVPTVELAANEEEQEIPDEKVDEEADRMVNEMRERLRALQN
As for B5, in experiment [1], the binding entry was “binds”.

B6: Vps24^M90C (protein, UniProt P36095 1-224)
chain: MDYIKKAIWGPDPKEQQRRIRSVLRKNGRNIEKSLRELTVLQNKTQQLIKKSAKKNDVRTVRLYAKELYQINKQYDRMYTSRAQLDSVRCKIDEAIRMNTLSNQMADSAGLMREVNSLVRLPQLRNTMIELEKELMKSGIISEMVDDTMESVGDVGEEMDEAVDEEVNKIVEQYTNEKFKNVDQVPTVELAANEEEQEIPDEKVDEEADRMVNEMRERLRALQN
Take B6: the binding result in experiment [5] is reported as “binds”.

B7: Vps24^M112C (protein, UniProt P36095 1-224)
chain: MDYIKKAIWGPDPKEQQRRIRSVLRKNGRNIEKSLRELTVLQNKTQQLIKKSAKKNDVRTVRLYAKELYQINKQYDRMYTSRAQLDSVRMKIDEAIRMNTLSNQMADSAGLCREVNSLVRLPQLRNTMIELEKELMKSGIISEMVDDTMESVGDVGEEMDEAVDEEVNKIVEQYTNEKFKNVDQVPTVELAANEEEQEIPDEKVDEEADRMVNEMRERLRALQN
B7: the binding result in experiment [6] is given as “binds”.

B8: Snf7, P39929 1-240 (protein)
chain: MWSSLFGWTSSNAKNKESPTKAIVRLREHINLLSKKQSHLRTQITNQENEARIFLTKGNKVMAKNALKKKKTIEQLLSKVEGTMESMEQQLFSIESANLNLETMRAMQEGAKAMKTIHSGLDIDKVDETMDEIREQVELGDEISDAISRPLITGANEVDEDELDEELDMLAQENANQETSKIVNNNVNAAPISENKVSLPSVPSNKIKQSENSVKDGEEEEDEEDEDEKALRELQAEMGL
As for B8, the binding entry in experiment [4] is listed as “binds”.
